This passage reports binding results from US20220233594A1, “TARGETING OTUB1 IN IMMUNOTHERAPY” (Board of Regents, The University ofTexas System, priority 2019, published 2022).

Amino acid sequences for entries named in this document (tags omitted). Residues count along the entry.
UniProt P31749: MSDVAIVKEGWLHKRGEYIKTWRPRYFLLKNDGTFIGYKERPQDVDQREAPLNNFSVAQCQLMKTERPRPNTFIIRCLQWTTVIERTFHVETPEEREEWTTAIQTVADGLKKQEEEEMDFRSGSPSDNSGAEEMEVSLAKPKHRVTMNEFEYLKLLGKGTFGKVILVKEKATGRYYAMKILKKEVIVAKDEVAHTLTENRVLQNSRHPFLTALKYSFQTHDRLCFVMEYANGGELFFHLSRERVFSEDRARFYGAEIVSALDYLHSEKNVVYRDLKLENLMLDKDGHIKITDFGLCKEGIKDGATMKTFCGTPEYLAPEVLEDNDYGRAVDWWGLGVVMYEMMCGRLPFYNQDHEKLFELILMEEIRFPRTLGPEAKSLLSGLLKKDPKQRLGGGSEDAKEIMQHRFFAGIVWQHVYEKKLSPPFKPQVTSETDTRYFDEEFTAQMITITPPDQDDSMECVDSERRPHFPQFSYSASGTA
UniProt Q96FW1, residues 2-271: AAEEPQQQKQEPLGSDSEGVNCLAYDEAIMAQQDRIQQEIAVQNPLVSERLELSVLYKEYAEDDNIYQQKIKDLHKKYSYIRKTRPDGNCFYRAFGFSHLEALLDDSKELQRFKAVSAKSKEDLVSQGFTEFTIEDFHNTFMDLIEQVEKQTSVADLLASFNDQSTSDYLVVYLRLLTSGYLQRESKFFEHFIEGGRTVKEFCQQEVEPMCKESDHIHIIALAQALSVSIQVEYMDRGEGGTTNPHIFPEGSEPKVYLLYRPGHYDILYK

Results are given in words; binding and its absence hold for the method and conditions named. Binding seen in cells or lysates may run through a third protein. Some entries that bind do so weakly or less than the wild type.

This test has as its target AKT (endogenous, in 15R-KIT T cells) (human) (UniProt P31749). The test is described as follows: co-immunoprecipitation of endogenous proteins from 15R-KIT T cell lysates, with and without IL-15 (FIG. 5B).

With “Otub1 (endogenous, in 15R-KIT T cells) (from UniProt Q96FW1 2-271) (enzyme)”, the binding result was “binds”.
